Test [1] has as its target T1, KapD fused to the Gal4 DNA binding domain (pGBDU bait) (B. subtilis) (UniProt O05231).
T1 sequence: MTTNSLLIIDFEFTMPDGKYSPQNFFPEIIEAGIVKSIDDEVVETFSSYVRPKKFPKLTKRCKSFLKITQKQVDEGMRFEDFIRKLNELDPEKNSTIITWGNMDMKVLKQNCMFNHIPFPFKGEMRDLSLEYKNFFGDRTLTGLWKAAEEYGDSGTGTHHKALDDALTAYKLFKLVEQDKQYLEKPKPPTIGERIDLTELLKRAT
The test can be described thus: two-hybrid; genome-wide screen of a pGAD B. subtilis genomic library with pGBDU-KapD bait in yeast; selection on -LUH or -LUA; prey recloned for a specificity assay against empty vector and non-related proteins.

Test [2] concerns the target T2, KapD-6xHis (B. subtilis) (UniProt O05231).
T2 sequence: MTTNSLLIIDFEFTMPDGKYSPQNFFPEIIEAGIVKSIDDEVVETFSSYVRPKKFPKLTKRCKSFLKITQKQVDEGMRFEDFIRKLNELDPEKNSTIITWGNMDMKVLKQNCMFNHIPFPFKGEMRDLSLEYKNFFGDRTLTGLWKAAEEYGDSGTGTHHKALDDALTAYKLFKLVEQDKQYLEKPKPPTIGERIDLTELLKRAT
The test can be described thus: pull-down + SEC; pellets of E. coli expressing KapD-6xHis and CotY-3xFLAG mixed and lysed together; His-Trap column, then Superdex 200 10/300 GL in 20 mM Tris-HCl pH 8.8, 150 mM NaCl, 10% glycerol; fractions blotted with anti-KapD and anti-Flag.

The target in test [3] is T2, KapD-6xHis (B. subtilis). The test can be described thus: pull-down + SEC; as the co-purification of KapD-6xHis and CotY-3xFLAG, but cells lysed in the presence of RNase A (10 ug/mL).

No constants are given. Whether binding was seen depends on the method and setting. For part of these data: Binding seen in cells or lysates may run through a third protein. Some results given as binding are weak or reduced against the parent protein; the word gives no strength. Tags and fused reporters may be left off the sequences shown.

In PMC11736430, “Embedding a ribonuclease in the spore crust couples gene expression to spore development in Bacillus subtilis” (Nucleic Acids Research, 2025) one finds binding data, which are given here for two molecules.

B1: CotY, full length, fused to the Gal4 activation domain (pGAD prey clone) (protein, UniProt Q08311 1-162)
chain: MSCGKTHGRHENCVCDAVEKILAEQEAVEEQCPTGCYTNLLNPTIAGKDTIPFLVFDKKGGLFSTFGNVGGFVDDMQCFESIFFRVEKLCDCCATLSILRPVDVKGDTLSVCHPCDPDFFGLEKTDFCIEVDLGCFCAIQCLSPELVDRTSPHKDKKHHHNG
B1: the binding entry in test [1] is reported as “binds”.

B2: CotY-3xFLAG (protein, UniProt Q08311 1-162)
chain: MSCGKTHGRHENCVCDAVEKILAEQEAVEEQCPTGCYTNLLNPTIAGKDTIPFLVFDKKGGLFSTFGNVGGFVDDMQCFESIFFRVEKLCDCCATLSILRPVDVKGDTLSVCHPCDPDFFGLEKTDFCIEVDLGCFCAIQCLSPELVDRTSPHKDKKHHHNG
With B2, the binding result in test [2] and in test [3] was “binds” each time.
